Source: article PMC11602657, “Nap1 and Kap114 co-chaperone H2A-H2B and facilitate targeted histone release in the nucleus” (The Journal of Cell Biology, 2024)
Where a chain is given by its changes, count along the chain named. Numbers in names are those of the source. Results are given in words; binding and its absence hold for the method and conditions named. Each block holds one binder with its values, some of them ahead of it.

How the values were obtained:
MBP-Kap114 = target: T1, MBP-Kap114 (S. cerevisiae, UniProt P53067 1-1004); test: pull-down; MBP-Kap114 (WT or mutant; or MBP alone) 1 µM immobilized on amylose resin, equimolar Nap1_(2) ± H2A-H2B (1 or 2 µM) ± Ran^GTP; Assay Buffer (20 mM HEPES pH 7.4, 150 mM NaCl, 2 mM MgCl2, 10% glycerol, 2 mM DTT), 30 min at 4°C; Coomassie-stained SDS-PAGE; both purified
T1 construct: TEV site between MBP and Kap114; pMalE modified with a His6-tag immediately N-terminal of MBP and a TEV site after MBP; held on amylose resin in the pull-downs; also called immobilized MBP-Kap114; iK; source: E. coli BL21 Gold, purified (amylose beads, HiTrap Q, SEC); not shown: MBP, N-terminal, kept
T1 sequence: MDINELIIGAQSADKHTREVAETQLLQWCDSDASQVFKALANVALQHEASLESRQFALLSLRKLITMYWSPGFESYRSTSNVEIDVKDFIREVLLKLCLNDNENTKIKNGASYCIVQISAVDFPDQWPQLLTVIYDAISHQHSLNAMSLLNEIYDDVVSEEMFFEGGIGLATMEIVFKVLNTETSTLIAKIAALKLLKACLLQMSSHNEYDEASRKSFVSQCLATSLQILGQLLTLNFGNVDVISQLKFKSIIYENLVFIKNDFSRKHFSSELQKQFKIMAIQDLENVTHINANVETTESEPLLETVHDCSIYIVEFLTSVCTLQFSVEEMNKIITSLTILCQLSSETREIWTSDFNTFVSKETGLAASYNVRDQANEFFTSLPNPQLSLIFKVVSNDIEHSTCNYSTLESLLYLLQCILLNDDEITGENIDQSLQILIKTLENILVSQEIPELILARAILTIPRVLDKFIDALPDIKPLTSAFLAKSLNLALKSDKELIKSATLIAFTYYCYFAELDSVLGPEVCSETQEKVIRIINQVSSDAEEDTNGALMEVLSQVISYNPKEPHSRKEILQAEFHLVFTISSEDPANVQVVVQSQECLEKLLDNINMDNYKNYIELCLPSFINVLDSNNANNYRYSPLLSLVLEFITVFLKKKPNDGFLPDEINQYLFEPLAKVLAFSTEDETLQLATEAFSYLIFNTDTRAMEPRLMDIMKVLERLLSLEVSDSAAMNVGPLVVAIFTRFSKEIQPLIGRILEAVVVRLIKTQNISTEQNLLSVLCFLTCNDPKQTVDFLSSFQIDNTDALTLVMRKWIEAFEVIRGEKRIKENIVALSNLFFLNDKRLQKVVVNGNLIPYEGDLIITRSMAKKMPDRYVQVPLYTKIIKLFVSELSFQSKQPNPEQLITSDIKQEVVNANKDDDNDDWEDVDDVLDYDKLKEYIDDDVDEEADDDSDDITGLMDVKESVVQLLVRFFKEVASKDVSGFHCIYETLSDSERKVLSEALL

Kap114 = target: T2, Kap114 (S. cerevisiae, UniProt P53067 1-1004); test: condition: only with H2A-H2B in excess (1:1:2 molar ratio K, N, H); SEC-MALS; 1:1:2 mixture of Kap114, Nap1_(2) and H2A-H2B (H2A-H2B in excess); Assay buffer without glycerol; both purified
T2 construct: also called Sc Kap114; source: E. coli, expressed as GST-Kap114, purified (Glutathione Sepharose 4B, on-column TEV cleavage, SEC)
T2 sequence: T1 sequence

binding (MBP-Kap114): no binding (tested: 1 µM)
B1: Nap1 βERQ (E288A/R290A/Q292A) (protein, UniProt P25293 1-417)
chain: MSDPIRTKPKSSMQIDNAPTPHNTPASVLNPSYLKNGNPVRAQAQEQDDKIGTINEEDILANQPLLLQSIQDRLGSLVGQDSGYVGGLPKNVKEKLLSLKTLQSELFEVEKEFQVEMFELENKFLQKYKPIWEQRSRIISGQEQPKPEQIAKGQEIVESLNETELLVDEEEKAQNDSEEEQVKGIPSFWLTALENLPIVADTITDRDAEVLEYLQDIGLEYLTDGRPGFKLLFRFDSSANPFFTNDILAKTYFYQKELGYSGDFIYDHAEGAEISWKDNAHNVTVDLAMAKARNKTTKQVRTIEKITPIESFFNFFDPPKIQNEDQDEELEEDLEERLALDYSIGEQLKDKLIPRAVDWFTGAALEFEFEEDEEEADEDEDEEEDDDHGLEDDDGESAEEQDDFAGRPEQAPECKQS

binding (Kap114): no binding
B2: Nap1 FL (C200A, C249A, C272A) (natural protein, S. cerevisiae, UniProt P25293 1-417, looked up)
chain: B1 chain with A288E, A290R, A292Q
notes: Nap1 (nucleosome assembly protein 1), S. cerevisiae, full length (FL), with C200A, C249A, C272A for specific labeling on 414C; pHAT4 vector, gift from Sheena D'Arcy; Counted as a dimer (Nap1_(2)) in all molar ratios; alone a mixture of dimers and tetramers; also called Nap1_(2); Nap1_(2) FL; source: E. coli BL21 gold, purified (Ni-NTA, TEV cleavage, HiTrap Q, Superdex S200)
